{"sequences": {"note": "Protein sequences, listed by entry. Tags and fused reporters are not part of them. Residues count along the entry.", "UniProt Q15811, residues 1-1220": "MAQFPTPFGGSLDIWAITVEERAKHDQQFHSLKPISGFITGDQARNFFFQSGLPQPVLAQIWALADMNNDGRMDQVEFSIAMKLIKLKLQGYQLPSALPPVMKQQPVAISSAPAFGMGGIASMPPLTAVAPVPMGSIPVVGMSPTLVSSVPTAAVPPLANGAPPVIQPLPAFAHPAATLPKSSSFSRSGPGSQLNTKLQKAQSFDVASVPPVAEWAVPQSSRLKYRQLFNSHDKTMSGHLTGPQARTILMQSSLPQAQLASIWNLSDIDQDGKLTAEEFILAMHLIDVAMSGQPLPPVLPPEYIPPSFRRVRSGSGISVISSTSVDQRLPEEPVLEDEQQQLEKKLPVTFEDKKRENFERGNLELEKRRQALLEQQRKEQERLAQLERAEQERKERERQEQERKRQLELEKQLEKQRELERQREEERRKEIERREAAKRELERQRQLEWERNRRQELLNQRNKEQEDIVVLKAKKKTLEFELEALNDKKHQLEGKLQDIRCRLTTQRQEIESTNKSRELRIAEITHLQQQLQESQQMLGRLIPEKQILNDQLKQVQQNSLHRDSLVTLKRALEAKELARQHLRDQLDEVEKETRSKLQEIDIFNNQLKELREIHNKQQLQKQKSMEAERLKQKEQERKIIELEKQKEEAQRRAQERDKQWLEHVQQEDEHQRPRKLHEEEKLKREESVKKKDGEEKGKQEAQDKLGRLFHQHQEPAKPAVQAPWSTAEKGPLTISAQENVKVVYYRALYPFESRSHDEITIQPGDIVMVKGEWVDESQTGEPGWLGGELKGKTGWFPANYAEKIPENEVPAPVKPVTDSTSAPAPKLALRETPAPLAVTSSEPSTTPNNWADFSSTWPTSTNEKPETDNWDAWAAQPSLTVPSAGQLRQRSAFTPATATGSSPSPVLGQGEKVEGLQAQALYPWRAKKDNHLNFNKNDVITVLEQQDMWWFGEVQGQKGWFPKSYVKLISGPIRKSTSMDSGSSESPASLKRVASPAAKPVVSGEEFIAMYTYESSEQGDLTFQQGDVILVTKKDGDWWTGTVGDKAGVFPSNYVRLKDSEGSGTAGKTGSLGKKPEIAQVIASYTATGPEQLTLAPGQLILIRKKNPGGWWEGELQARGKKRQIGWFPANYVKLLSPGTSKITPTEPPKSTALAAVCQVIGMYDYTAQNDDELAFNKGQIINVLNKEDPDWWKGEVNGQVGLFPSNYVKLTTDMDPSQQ", "UniProt O00443": "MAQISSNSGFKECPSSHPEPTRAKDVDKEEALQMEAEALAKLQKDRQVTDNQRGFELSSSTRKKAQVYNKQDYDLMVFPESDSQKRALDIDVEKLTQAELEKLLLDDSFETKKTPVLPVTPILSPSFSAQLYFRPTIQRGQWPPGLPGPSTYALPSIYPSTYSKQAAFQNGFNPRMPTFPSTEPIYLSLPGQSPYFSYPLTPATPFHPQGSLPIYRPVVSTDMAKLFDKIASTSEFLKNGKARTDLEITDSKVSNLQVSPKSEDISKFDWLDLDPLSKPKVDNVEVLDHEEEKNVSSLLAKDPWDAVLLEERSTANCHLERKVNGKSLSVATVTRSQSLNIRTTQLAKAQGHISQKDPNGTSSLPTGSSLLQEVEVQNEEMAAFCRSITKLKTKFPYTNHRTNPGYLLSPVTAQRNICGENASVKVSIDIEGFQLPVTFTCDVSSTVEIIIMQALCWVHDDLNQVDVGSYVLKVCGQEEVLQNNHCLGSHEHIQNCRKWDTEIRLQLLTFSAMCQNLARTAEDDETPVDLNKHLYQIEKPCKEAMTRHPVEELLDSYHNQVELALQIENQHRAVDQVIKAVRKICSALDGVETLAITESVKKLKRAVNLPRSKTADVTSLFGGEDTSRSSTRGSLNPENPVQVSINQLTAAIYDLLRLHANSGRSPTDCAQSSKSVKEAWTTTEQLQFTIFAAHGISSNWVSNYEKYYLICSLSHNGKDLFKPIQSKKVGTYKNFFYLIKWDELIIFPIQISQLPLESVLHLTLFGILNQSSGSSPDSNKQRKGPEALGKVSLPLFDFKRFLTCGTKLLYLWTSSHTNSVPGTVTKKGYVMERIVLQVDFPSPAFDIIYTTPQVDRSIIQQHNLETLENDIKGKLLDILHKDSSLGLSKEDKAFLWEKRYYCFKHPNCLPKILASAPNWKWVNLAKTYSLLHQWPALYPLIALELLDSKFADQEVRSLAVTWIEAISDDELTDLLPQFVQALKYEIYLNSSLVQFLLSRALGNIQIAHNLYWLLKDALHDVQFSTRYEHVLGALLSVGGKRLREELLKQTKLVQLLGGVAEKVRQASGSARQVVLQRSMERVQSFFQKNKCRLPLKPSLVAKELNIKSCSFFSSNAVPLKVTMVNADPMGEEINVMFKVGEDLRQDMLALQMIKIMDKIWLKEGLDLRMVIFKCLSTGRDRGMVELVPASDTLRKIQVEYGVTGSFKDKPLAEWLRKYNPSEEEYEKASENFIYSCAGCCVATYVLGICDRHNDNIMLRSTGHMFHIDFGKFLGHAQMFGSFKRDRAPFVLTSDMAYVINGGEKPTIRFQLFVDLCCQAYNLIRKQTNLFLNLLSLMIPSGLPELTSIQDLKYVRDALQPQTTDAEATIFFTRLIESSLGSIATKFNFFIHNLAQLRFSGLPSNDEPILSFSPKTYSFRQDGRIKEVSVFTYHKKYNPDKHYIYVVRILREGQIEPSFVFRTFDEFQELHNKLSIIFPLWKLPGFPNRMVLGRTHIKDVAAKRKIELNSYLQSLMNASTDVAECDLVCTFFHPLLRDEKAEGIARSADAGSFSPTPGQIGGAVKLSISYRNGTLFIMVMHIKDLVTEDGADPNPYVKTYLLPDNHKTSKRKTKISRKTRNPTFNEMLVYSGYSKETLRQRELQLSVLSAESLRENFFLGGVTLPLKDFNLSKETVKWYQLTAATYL"}, "source": "paper PMC8501101", "target": "3×flag-labeled wild-type ITSN1-S (intersectin1 short isoform) (human) (UniProt Q15811)", "assay": "affinity purification with mass spectrometry; cellular extracts of 3×flag-ITSN1-S cells immunopurified with anti-flag M2 gel (4 h, 4 °C), eluted with flag peptides, SDS-PAGE, silver staining, LC-MS/MS", "note": "No constants are given. Whether binding was seen depends on the method and setting. In cells and extracts the contact can be indirect. A yes stands for co-enrichment or nearness to the bait. Other partners may have been found.", "data": [{"substance": "PI3KC2α (from UniProt O00443 1-1686)", "values": [{"measurement": "binding", "value": "binds"}]}]}
